Data source: PubChem BioAssay AID504791 (Drosophila RNAi Screening Center, 2011)

Purpose: 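Factors in Argonaute-based small RNA production and activity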 (primary screen)
Cells: Drosophila S2-derived reporter cells
Reagent: long dsRNA against Drosophila genes, about 150-250 ng dsRNA per well (siRNA assay); about 80-120 ng (miRNA assay)
Time to read-out: about 5 days (siRNA assay); about 4 days (miRNA assay)
Challenge: copper sulfate induction of reporters: 25 µM (siRNA assay); 200 mM stated (miRNA assay), 1-2 days before reading
Measured: 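Per-well ratio of Renilla over firefly light, expressed relative to that plate's average ratio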
Units: stable assay Renilla, run 1 in luminescence; stable assay firefly, run 1 in luminescence
Hit rule: 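First-pass picks had plate-scaled ratios over 1.5 for the siRNA assay, over 1.6 for the miRNA assay, or under 0.6; two distinct dsRNAs had to score alike on retest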
The deposit covers about 23,000 reagents; this is a random part of those with a known target gene and a result. In the full data, 199 (0.86%) are marked active. 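Plate-scaled ratios behind the calls are not deposited; printed light signals are raw; many rows marked increased or decreased are still called inactive.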 A number with no mark means an inactive call. Reagents against one gene are numbered here. Names joined by + are all predicted targets of the reagent. The record does not give: the direction of the score.

Oseg1 (Outer segment 1) — stable assay Renilla, run 1 = 8239; stable assay firefly, run 1 = 4.76e5
CG31673 — stable assay Renilla, run 1 = 81135; stable assay firefly, run 1 = 6.56e5
CG14641 — stable assay Renilla, run 1 = 13159; stable assay firefly, run 1 = 3.90e5
twe (twine) — stable assay Renilla, run 1 = 2.97e5; stable assay firefly, run 1 = 1.19e6
mip40 (Myb-interacting protein 40) — stable assay Renilla, run 1 = 8283; stable assay firefly, run 1 = 3.92e5
CG17977 — stable assay Renilla, run 1 = 7018; stable assay firefly, run 1 = 4.40e5
eEF1alpha1 (eukaryotic translation elongation factor 1 alpha 1) — stable assay Renilla, run 1 = 5015; stable assay firefly, run 1 = 3.84e5
Ciz1 (Ciz1 zinc finger protein) #1 — stable siRNA reporter change = reporter ratio lowered past the hit cutoff (active); miRNA reporter change = reporter ratio lowered past the hit cutoff; stable assay Renilla, run 1 = 3583; stable assay firefly, run 1 = 3.65e5
Ciz1 (Ciz1 zinc finger protein) #2 — miRNA reporter change = reporter ratio lowered past the hit cutoff (active)
Obp19c (Odorant-binding protein 19c) — stable assay Renilla, run 1 = 6470; stable assay firefly, run 1 = 4.99e5
CG34386 #1 — stable assay Renilla, run 1 = 4528; stable assay firefly, run 1 = 1.67e5
CG34386 #2 — stable assay Renilla, run 1 = 6618; stable assay firefly, run 1 = 3.55e5
CG34386 #3 — stable assay Renilla, run 1 = 4659; stable assay firefly, run 1 = 3.27e5
alien + CG17906 — stable assay Renilla, run 1 = 6878; stable assay firefly, run 1 = 3.43e5
lncRNA:CR32730 (long non-coding RNA:CR32730) — stable assay Renilla, run 1 = 6038; stable assay firefly, run 1 = 6.27e5
mRpL24 (mitochondrial ribosomal protein L24) — stable assay Renilla, run 1 = 11571; stable assay firefly, run 1 = 4.87e5
CG1288 — stable assay Renilla, run 1 = 6904; stable assay firefly, run 1 = 3.80e5
pds5 — stable assay Renilla, run 1 = 8179; stable assay firefly, run 1 = 5.07e5
CG12096 — stable assay Renilla, run 1 = 9439; stable assay firefly, run 1 = 4.22e5
Gclm (Glutamate-cysteine ligase modifier subunit) — stable assay Renilla, run 1 = 13642; stable assay firefly, run 1 = 3.98e5
CR40441 (pseudo) — stable assay Renilla, run 1 = 3659; stable assay firefly, run 1 = 3.82e5
lncRNA:CR30055 (long non-coding RNA:CR30055) — stable assay Renilla, run 1 = 4535; stable assay firefly, run 1 = 4.70e5
CG8326 — stable assay Renilla, run 1 = 8151; stable assay firefly, run 1 = 4.19e5
CG13613 — stable assay Renilla, run 1 = 7463; stable assay firefly, run 1 = 3.30e5
JhI-21 (Juvenile hormone Inducible-21) — stable assay Renilla, run 1 = 49800; stable assay firefly, run 1 = 5.88e5
CG34434 #1 — stable assay Renilla, run 1 = 6894; stable assay firefly, run 1 = 3.86e5
CG34434 #2 — miRNA reporter change = reporter ratio lowered past the hit cutoff
Vps60 (Vacuolar protein sorting 60) — stable assay Renilla, run 1 = 8062; stable assay firefly, run 1 = 4.01e5

Reformatted: 2 of the entries above.
| Gene | reagent | stable siRNA reporter change | miRNA reporter change | stable assay Renilla, run 1 | stable assay firefly, run 1 |
| --- | --- | --- | --- | --- | --- |
| CG34386 | 1 | – | – | 4528 | 1.67e5 |
| CG34386 | 2 | – | – | 6618 | 3.55e5 |
